Data as given in patent publication US20250051283A1, “THERAPEUTIC COMPOUNDS AND METHODS” (priority 2023, published 2025).
Some of these results come from one statement about several compounds together. At least one structure is not confirmed: it was looked up by name or label, or the drawing left a doubt.

What was measured:
R.D. cells = experiment: Cytotoxicity by neutral red uptake in R.D. cells, no viral infection; assay type: cell-based, Human
Procedure: (§1) Cell lines and viruses. Human rhabdomyosarcoma (R.D., ATCC, CCL-136) cells were maintained at 37° C. in a 5% CO2 atmosphere and cultured in Dulbecco's modified Eagle's medium (DMEM) supplemented with 10% fetal bovine serum (FBS) and 1% penicillin-streptomycin antibiotics. The following reagents were obtained through BEI Resources, NIAID, NIH: Human Enterovirus D68, US/MO/14-18949, NR-49130; Enterovirus D68, US/MO/14-18947, NR-49129; Enterovirus D68, US/IL/14-18952, NR-49131; Enterovirus D68, US/KY/14-18953, NR-49132; Enterovirus D68, US/IL/14-18956, NR-49133.
(§2) Antiviral assays. Cells for antiviral assays were seeded and grown overnight at 37° C. in a 5% CO2 atmosphere for ˜90% confluency the next day. For all infections, cells were washed with PBS containing magnesium and calcium and infected with virus diluted in DMEM with 2% FBS and 30 mM MgCl2. Viruses were incubated for at least 1 h at 33° C. in a 5% CO2 atmosphere, followed by the addition of compound as well as 1% penicillin-streptomycin. For CC50 measurements, the experiment was performed similarly but excluded viral infection. For cytopathic effect (CPE) assays, cells were stained with 66 µg/mL neutral red for 2 h and neutral red uptake was measured at absorbance 540 nm using a Multiskan FC Microplate Photometer (ThermoFisher Scientific). The EC50 and CC50 values were calculated from best-fit dose response curves using GraphPad Prism. For plaque reduction assays, an 1.2% avicel microcrystalline cellulose (FMC BioPolymer, Philadelphia, PA) overlay was used and cells were stained after 3 days as previously described^26.

EV-D68 US/MO/14-18947 = experiment: Secondary plaque reduction assay with EV-D68 US/MO/14-18947; assay type: cell-based, Enterovirus D68; settings: versus telaprevir
Procedure: as §1
as §2, with “For CC50 measurements, the experiment was performed similarly but excluded viral infection.” left out, “For plaque reduction assays, an 1.2% avicel microcrystalline cellulose (FMC BioPolymer, Philadelphia, PA) overlay was used and cells were stained after 3 days as previously described^26.” left out

Row | SMILES | CC50 (R.D. cells) | fold improvement of plaque assay EC50 compared to telaprevir (EV-D68 US/MO/14-18947)
1 | CC(C)[C@H](NC(=O)[C@@H]1[C@H]2CCC[C@H]2CN1C(=O)[C@@H](NC(=O)CC12CC3CC(CC(C3)C1)C2)C(C)(C)C)C(=O)C(=O)NC1CC1 [Jun11718, (1S,3aR,6aS)-2-((S)-2-(2-((3S,5S,7S)-adamantan-1-yl)acetamido)-3,3-dimethylbutanoyl)-N—((S)-1-(cyclopropylamino)-4-methyl-1,2-dioxopentan-3-yl)octahydrocyclopenta[c]pyrrole-1-carboxamide] | > 150 µM | 
2 | CCC(C)[C@H](NC(=O)[C@@H]1[C@H]2CCC[C@H]2CN1C(=O)[C@@H](NC(=O)CC12CC3CC(CC(C3)C1)C2)C(C)(C)C)C(=O)C(=O)NC1CC1 (stereo partly drawn) [Jun11756, (1S,3aR,6aS)-2-((S)-2-(2-((3S,5S,7S)-adamantan-1-yl)acetamido)-3,3-dimethylbutanoyl)-N-((3S,4S)-1-(cyclopropylamino)-4-methyl-1,2-dioxohexan-3-yl)octahydrocyclopenta[c]pyrrole-1-carboxamide] | > 150 µM | 3 to 4 fold
3 | CC(C)(C)[C@H](NC(=O)CC12CC3CC(CC(C3)C1)C2)C(=O)N1C[C@@H]2CCC[C@@H]2[C@H]1C(=O)N[C@H](C(=O)C(=O)NC1CC1)C1CCCC1 [Jun11808, (1S,3aR,6aS)-2-((S)-2-(2-((3S,5S,7S)-adamantan-1-yl)acetamido)-3,3-dimethylbutanoyl)-N—((S)-1-cyclopentyl-3-(cyclopropylamino)-2,3-dioxopropyl)octahydrocyclopenta[c]pyrrole-1-carboxamide] | > 150 µM | 
4 | CC(C)(C)[C@H](NC(=O)CC12CC3CC(CC(C3)C1)C2)C(=O)N1C[C@@H]2CCC[C@@H]2[C@H]1C(=O)N[C@@H](Cc1c[nH]c2ccccc12)C(=O)C(=O)NC1CC1 [Jun11862, (1S,3aR,6aS)-2-((S)-2-(2-((3S,5S,7S)-adamantan-1-yl)acetamido)-3,3-dimethylbutanoyl)-N—((S)-4-(cyclopropylamino)-1-(1H-indol-3-yl)-3,4-dioxobutan-2-yl)octahydrocyclopenta[c]pyrrole-1-carboxamide] | > 150 µM | 
